Test results taken from PMC10289378.
Results are given in words; binding and its absence hold for the method and conditions named. In cells and extracts the contact can be indirect. Some entries that bind do so weakly or less than the wild type. For part of these data: Sequences can lack the tags named with a protein.

T1: LINE-1 (L1) ORF1p (mouse (endogenous in Mael^-/- testis)) (UniProt P11260)
T1 sequence: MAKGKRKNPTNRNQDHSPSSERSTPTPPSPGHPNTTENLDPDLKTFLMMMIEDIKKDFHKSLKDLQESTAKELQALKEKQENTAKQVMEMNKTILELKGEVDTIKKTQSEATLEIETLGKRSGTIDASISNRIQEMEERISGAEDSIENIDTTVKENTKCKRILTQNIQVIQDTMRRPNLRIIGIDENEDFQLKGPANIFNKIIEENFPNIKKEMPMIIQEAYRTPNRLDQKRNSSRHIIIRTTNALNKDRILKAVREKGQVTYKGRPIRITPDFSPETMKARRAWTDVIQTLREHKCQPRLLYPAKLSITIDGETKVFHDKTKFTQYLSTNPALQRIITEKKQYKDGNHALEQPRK

T2: LINE-1 (L1) ORF1p, endogenous in F9 cells (mouse (endogenous in F9 cells)) (UniProt P11260)
T2 sequence: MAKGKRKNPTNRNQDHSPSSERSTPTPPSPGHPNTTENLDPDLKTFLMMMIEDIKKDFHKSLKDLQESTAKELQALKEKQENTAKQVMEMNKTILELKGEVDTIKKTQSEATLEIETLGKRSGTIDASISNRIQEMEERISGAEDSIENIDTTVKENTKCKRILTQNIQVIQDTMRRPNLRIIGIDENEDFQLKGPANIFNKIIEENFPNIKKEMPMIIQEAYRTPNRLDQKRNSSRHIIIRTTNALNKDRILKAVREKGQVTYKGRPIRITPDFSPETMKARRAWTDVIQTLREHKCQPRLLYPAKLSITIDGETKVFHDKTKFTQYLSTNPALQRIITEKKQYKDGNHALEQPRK


Key:
[1] = target: T1, LINE-1 (L1) ORF1p (mouse (endogenous in Mael^-/- testis)); assay: co-IP; anti-ORF1p immunoprecipitation from untreated Mael^-/- testicular lysate, western blot for PRKRA; isotype IgG as negative control
[2] = target: T1, LINE-1 (L1) ORF1p (mouse (endogenous in Mael^-/- testis)); assay: co-IP; anti-ORF1p immunoprecipitation from RNase-treated (RNase A, T1 and I) Mael^-/- testicular lysate, western blot for PRKRA; isotype IgG as negative control
[3] = target: T2, LINE-1 (L1) ORF1p, endogenous in F9 cells (mouse (endogenous in F9 cells)); assay: co-IP; anti-ORF1p immunoprecipitation from F9 cells transfected with pEGFP or pPRKRA, western blot; isotype IgG as negative control

Binder	binding [1]	binding [2]	binding [3]
PRKRA (protein, UniProt Q9WTX2 1-313) MSHSRHRAEAPPLQREDSGTFSLGKMITAKPGKTPIQVLHEYGMKTKNIPVYECERSDVQVHVPTFTFRVTVGDITCTGEGTSKKLAKHRAAEAAINILKANASICFAVPDPLMPDPSKQPKNQLNPIGSLQELAIHHGWRLPEYTLSQEGGPAHKREYTTICRLESFMETGKGASKKQAKRNAAEKFLAKFSNISPENHISLTNVVGHSLGCTWHSLRNSPGEKINLLKRSLLSLPNTDYIQLLSEIASEQGFNITYLDIEELSANGQYQCLAELSTSPITVCHGSGISCGNAQSDAAHNALQYLKIIAERK	binds	binds	
3XFLAG N-terminally tagged mouse PRKRA (protein, UniProt Q9WTX2 1-313) MSHSRHRAEAPPLQREDSGTFSLGKMITAKPGKTPIQVLHEYGMKTKNIPVYECERSDVQVHVPTFTFRVTVGDITCTGEGTSKKLAKHRAAEAAINILKANASICFAVPDPLMPDPSKQPKNQLNPIGSLQELAIHHGWRLPEYTLSQEGGPAHKREYTTICRLESFMETGKGASKKQAKRNAAEKFLAKFSNISPENHISLTNVVGHSLGCTWHSLRNSPGEKINLLKRSLLSLPNTDYIQLLSEIASEQGFNITYLDIEELSANGQYQCLAELSTSPITVCHGSGISCGNAQSDAAHNALQYLKIIAERK			binds
